Reference: PMC5676250 (Chemical Science, 2017)

Experiment: general procedure: Fmoc solid-phase peptide synthesis; Fmoc Rink amide resin, 0.641 mmol/g loading; PyBOP
Conditions: whole synthesis

Substance	isolated yield	final HPLC purity
PEPTIDE1{G.K.W.M.S.L.L.K.H.[LysChol].L.K.[am]}$$$$V2.0	2.2%	95.2%
PEPTIDE1{G.K.W.M.S.[LysChol].L.K.H.I.L.K.[am]}$$$$V2.0	7.2%	99.8%
PEPTIDE1{G.K.W.M.S.L.L.K.H.I.L.K.[am]}$$$$V2.0	8.3%	99.0%
PEPTIDE1{G.K.W.M.S.L.L.[LysChol].H.I.L.K.[am]}$$$$V2.0	3.4%	99.8%

HELM strings list residues between dots; [ac] is acetyl, [am] amide, other brackets name non-standard units.
